Experimental data published in paper PMC12508185.
Results are given in words; binding and its absence hold for the method and conditions named. Binding seen in cells or lysates may run through a third protein. A yes stands for co-enrichment or nearness to the bait. Other partners may have been found. Sequences can lack the tags named with a protein. Blank lines part the entries; values can stand above or below the binder they belong to.

Target: T1, SRAS1.1-His fusion protein (Arabidopsis thaliana) (UniProt Q9FKX5)
T1 sequence: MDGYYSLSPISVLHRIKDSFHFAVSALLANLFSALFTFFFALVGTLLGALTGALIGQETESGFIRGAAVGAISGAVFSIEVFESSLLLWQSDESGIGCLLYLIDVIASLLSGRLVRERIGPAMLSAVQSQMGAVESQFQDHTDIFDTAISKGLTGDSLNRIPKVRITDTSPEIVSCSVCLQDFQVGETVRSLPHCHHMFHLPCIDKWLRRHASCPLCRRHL
Experiment: affinity purification with mass spectrometry; SRAS1.1-His fusion protein incubated with total protein of 7-day-old wild-type seedlings with and without 250 mM mannitol; lysis buffer 50 mM Tris-HCl pH 7.5, 150 mM NaCl, 1% Triton X-100, 5 mM EDTA; agarose beads coupled with anti-His antibody, overnight at 4 °C; LC-MS/MS of the gel sample; only the target purified

- binding: binds
B1: DSK2B, endogenous (protein, UniProt Q9SII8 1-551)
chain: MGGEGDSSQPQSGEGEAVAVNIRCSNGTKFSVKTSLDSTVESFKELVAQSSDVPANQQRLIYKGRILKDDQTLLSYGLQADHTIHMVRGSAPSSAPPPAPAASQTTAPSVTRGVGSDNSSNLGGASPGESLFPGLGFNPLGGGNAMSGLFGAGLPDLVQTQQQLAQNPNMIRDMMNTPAIQNLMNNPEFMRSMIMNNPQMRELVDRNPELGHVLNDPSILRQTLEAARNPELMREMMRNTDRAMSNIESMPEGFNMLRRMYENVQEPLMNATTMSGNAGNNTGSNPFAALLGNQGVTTQGSDASNNSSTPNAGTGTIPNANPLPNPWGATGGQTTAPGRTNVGGDARSPGLGGLGGLGSLGGLGGLGMLGADSPLGATPDASQLSQLLQNPAISQMMQSVFSNPQYMNQLMSLNPQLRSMLDSNPQLREMMQNPDFLRQFSSPEMMQQMMTLQQSLSQNRNTASQDAGQTGAATGNNGGLDLLMNMFGSLGAGGLSGTNQSNVPPEERYATQLQQLQEMGFYDRAENIRALLATNGNVNAAVERLLGSIGQ

- binding: binds
B2: DSK2A (DOMINANT SUPPRESSOR OF KAR 2A), endogenous (protein, UniProt Q9SII9 1-538)
chain: MGGEADSRQPLTAEGVAVAVNVRCSNGTKFSVTTSLDSTVESFKELIAQNSDVPANQQRLIYKGRILKDDQTLLSYGLQADHTVHMVRGFVPSSPSAPAANAGNQTTAPQAVGSNDSSNLGGGESLFPGLGFNPLGGGNAMAGLFGSGLPDLEQAQQQLAQNPNMIREMMNTPAIQNLMNNPEFMRSMIMNNPQMRELVDRNPELGHVLNDPSILRQTLEAARNPELMREMMRNTDRAMSNIESMPEGFNMLRRMYENVQEPLMNATTMSENAGNNTSSNPFAALLGNQGVTTQGSDTSNNISAPNAETGTPNANPLPNPWGATAGQTTAPGRTNAGLGGLGGLGGLGGLGMLGADSPLGATPDASQLSQILQNPAMSQMMQSVLSNPQYMNQLMSLNPQLRSMLDMNPQLREMMQNPDFLRQFSSPEMMQQMMSLQQSLFSQNRNTAGQDPTQTGAATGTANNGGLDLLMNMFGSLGAGGLSGTNQPNVPPEERFATQLQQLQEMGFYDRAENIRALLATNGNVNAAVERLLGSIGQ
